Data published in patent US20110288011A1 (priority 2008, published 2011).

Amino acid sequences for entries named in this document (tags omitted). A change or cut given only in a name is not applied to a line headed by its entry.
UniProt P41159: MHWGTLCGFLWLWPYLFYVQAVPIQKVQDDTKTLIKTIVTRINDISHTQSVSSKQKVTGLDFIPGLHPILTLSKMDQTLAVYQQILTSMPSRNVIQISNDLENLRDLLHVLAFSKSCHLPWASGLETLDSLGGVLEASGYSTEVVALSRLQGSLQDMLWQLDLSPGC

Assay: general procedure: Fmoc solid-phase peptide synthesis; Pre-loaded Fmoc-Leu-Wang resin (0.48 mmol/g); Rink amide MBHA resin with Nle (0.40 mmol/g) for ANG-Cys-NH2; HBTU/NMM (TBTU or HCTU for some peptides)
Conditions: for final purity (method not given) / final HPLC purity: HPLC (Waters Acquity, BEH phenyl, 229 nm)
[1] = whole synthesis, scale of the general procedure 100 μmol

Substance | final purity (method not given) [1] | final HPLC purity [1] | isolated yield [1] | conjugation yield (conjugation step) | further results
pGlu-LysNT (8-13) | ≧95% |  |  |  | 
Ac-KRRPD-YIL-OH | ≧95% | purity HPLC≧95% | 82% yield |  | 
leptin(116-130) (SCHLPWASGLETLDS; C-terminal amide; UniProt P41159 116-130, looked up, fragment) |  |  |  | 79% | 
NT-AN2Cys-NH2 |  |  |  | 65% yield | final HPLC purity (conjugation step): purity HPLC>95%; final purity (method not given) (conjugation step, run 1): purity>95%; final purity (method not given) (conjugation step, run 2): ≧95%; conjugation yield (conjugation step, over 2 steps, run 1): 9% over 2 steps; conjugation yield (conjugation step, over 2 steps, run 2): 54% over 2 steps
MHA-RRPYIL-OH |  | purity HPLC≧95% | 73% yield |  | 
